Measurements as given in publication PMC5621702.
No constants are given. Whether binding was seen depends on the method and setting. A result given as binding can be weak or reduced; the word gives no strength.

Molecular target: retinoid X receptor (RXR)
Assay: native gel or EMSA; 32P-labelled oligonucleotide probes with the mouse Gata1 TRE1 or TRE2; TRα1 made by in vitro transcription/translation, in increasing concentrations; bands of TR/RXR heterodimers on the DNA, supershifted by anti-TRα1 or anti-TRα1PV antibodies, competed by unlabelled TRE

binding: binds
B1: thyroid hormone receptor α1 (TRα1) (receptor, UniProt P63058-2 1-410)
chain: MEQKPSKVECGSDPEENSARSPDGKRKRKNGQCPLKSSMSGYIPSYLDKDEQCVVCGDKATGYHYRCITCEGCKGFFRRTIQKNLHPTYSCKYDSCCVIDKITRNQCQLCRFKKCIAVGMAMDLVLDDSKRVAKRKLIEQNRERRRKEEMIRSLQQRPEPTPEEWDLIHVATEAHRSTNAQGSHWKQRRKFLPDDIGQSPIVSMPDGDKVDLEAFSEFTKIITPAITRVVDFAKKLPMFSELPCEDQIILLKGCCMEIMSLRAAVRYDPESDTLTLSGEMAVKREQLKNGGLGVVSDAIFELGKSLSAFNLDDTEVALLQAVLLMSTDRSGLLCVDKIEKSQEAYLLAFEHYVNHRKHNIPHFWPKLLMKVTDLRMIGACHASRFLHMKVECPTELFPPLFLEVFEDQEV
